Results deposited as PubChem BioAssay AID504804 (Drosophila RNAi Screening Center, 2011)

- Aim: 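dsRNAs that improve Kc cell survival under doxorubicin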 (primary screen)
- System: Drosophila Kc cells
- Knock-down reagent: long dsRNA against Drosophila genes, 0.5 µg dsRNA per well
- Time to read-out: 96 h (48 h knock-down, then 48 h drug)
- Challenge: doxorubicin 5 µg/ml for 48 h, added 48 h after dsRNA
- Detection: 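Viability measured as cellular ATP by luminescence after 48 h knock-down then 48 h doxorubicin at 5 µg/ml; unnormalised plate counts for each replicate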
- Reading the numbers: raw ATP luminescence: higher = more viable cells, protection from doxorubicin
- Rule for the call: 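Active when both duplicate wells lie at least 2 SD above the plate mean and protection is confirmed by rescreening and independent dsRNAs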
The deposit covers about 19,000 reagents; below is an unselected part of those that have a named target and a result. In the full data, 47 (0.25%) are marked active. 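Signals are raw, not normalised; exact z-scores behind calls not deposited; actives needed confirmation, so some wells reaching 2 SD are inactive.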

| predicted target | amplicon | raw ATP luminescence, replicate 1 | raw ATP luminescence, replicate 2 | outcome |
| --- | --- | --- | --- | --- |
| CG8353 | DRSC03084 | 47637 | 83497 | inactive |
| SA1 | DRSC03424 | 96850 | 56767 | inactive |
| Rab7 | DRSC16810 | 35670 | 32163 | inactive |
| shep | DRSC08748 | 40360 | 1.72e5 | inactive |
| shep | DRSC09765 | 65620 | 69530 | inactive |
| shep | DRSC09771 | 34917 | 33643 | inactive |
| CG17734 | DRSC15256 | 53827 | 40627 | inactive |
| LManIV | DRSC03222 | 43237 | 65490 | inactive |
| CG31380 | DRSC15688 | 64050 | 61640 | inactive |
| Invadolysin | DRSC15527 | 59123 | 59670 | inactive |
| RpS12 | DRSC11270 | 37123 | 35763 | inactive |
| Pgant2 | DRSC00587 | 28350 | 26983 | inactive |
| CG13594 | DRSC04229 | 32013 | 33763 | inactive |
| Cp36 | DRSC18452 | 37990 | 42890 | inactive |
| CG9269 | DRSC16465 | 76070 | 1.05e5 | inactive |
| trio | DRSC07928 | 1.04e5 | 1.23e5 | inactive |
| trio | DRSC08527 | 53510 | 53737 | inactive |
| repo | DRSC16369 | 38490 | 35260 | inactive |

2 entries from above, showing only “raw ATP luminescence, replicate 2”.
Pgant2 [DRSC00587] = 26983
CG13594 [DRSC04229] = 33763

The list goes on:
| predicted target | amplicon | raw ATP luminescence, replicate 1 | raw ATP luminescence, replicate 2 | outcome |
| --- | --- | --- | --- | --- |
| Bdbt | DRSC15218 | 52940 | 47780 | inactive |
| CG9107 | DRSC03138 | 1.04e5 | 87363 | inactive |
| Ostgamma | DRSC03074 | 1.11e5 | 73913 | inactive |
| LPCAT | DRSC18157 | 4.45e5 | 3.60e5 | inactive |
| LPCAT | DRSC18257 | 2.49e5 | 2.74e5 | inactive |
| CG14569 | DRSC11730 | 83847 | 61733 | inactive |
| CheA86a | DRSC12839 | 2.31e5 | 2.10e5 | inactive |
| CG43066 | DRSC06927 | 1.85e5 | 1.87e5 | inactive |
| CG4483 | DRSC10426 | 2.05e5 | 1.78e5 | inactive |
| Ugt35A1 | DRSC16892 | 44567 | 24663 | inactive |
| CG12236 | DRSC17831 | 40270 | 41960 | inactive |
| CG15186 | DRSC12566 | 66780 | 57670 | inactive |
| Fatp3 | DRSC04366 | 43960 | 49173 | inactive |
| Elo68beta | DRSC09860 | 68890 | 1.26e5 | inactive |
| Dic3 | DRSC06058 | 52210 | 67800 | inactive |
| tld | DRSC17084 | 53040 | 59070 | inactive |
